Marks after values point to notes of the source that are not given here.
System: C57Bl/6 control mice
Test: C57Bl/6 control mice, daily p.o. CL2-57 for one week
Format: in vivo, mouse
Details: 10 mg/kg daily p.o. one week

`CCOC(=O)c1cccc(NC(=O)c2sc(Cl)cc2S(=O)(=O)N(C)c2ccc(OCC)c(OCC)c2)c1` [CL2-57, ethyl 3-(5-chloro-3-(N-(3,4-diethoxyphenyl)-N-methylsulfamoyl)thiophene-2-carboxamido) benzoate] was tested, and the “Arachidate (20:0), CL2-57/Vehicle” value (liver free fatty acids) was 3.08**, the “Butyrate/isobutyrate (4:0), CL2-57/Vehicle” value (liver free fatty acids) was 0.71 and the “Caprate (10:0), CL2-57/Vehicle” value (liver free fatty acids) was 1.18. For the same compound, the “Caproate (6:0), CL2-57/Vehicle” value (liver free fatty acids) was 1.49, the “Caprylate (8:0), CL2-57/Vehicle” value (liver free fatty acids) was 1.28 and the “Heptanoate (7:0), CL2-57/Vehicle” value (liver free fatty acids) was 1.00. For the same compound, the “Margarate (17:0), CL2-57/Vehicle” value (liver free fatty acids) was 2.89**, the “Myristate (14:0), CL2-57/Vehicle” value (liver free fatty acids) was 2.67** and the “Nonadecanoate (19:0), CL2-57/Vehicle” value (liver free fatty acids) was 3.11**. For the same compound, the “Palmitate (16:0), CL2-57/Vehicle” value (liver free fatty acids) was 2.90**, the “Pentadecanoate (15:0), CL2-57/Vehicle” value (liver free fatty acids) was 2.93** and the “Stearate (18:0), CL2-57/Vehicle” value (liver free fatty acids) was 2.47**. For the same compound, the “1,5-Anhydroglucitol (1,5-AG), CL2-57/Vehicle” value (liver) was 0.85, the “2,3-Diphosphoglycerate, CL2-57/Vehicle” value (liver) was 0.84 and the “2-Phosphoglycerate, CL2-57/Vehicle” value (liver) was 0.94. The “3-Phosphoglycerate, CL2-57/Vehicle” value (liver) was 0.84, the “Dihydroxyacetone phosphate, CL2-57/Vehicle” value (liver) was 0.75 and the “Fru/glu-1,6-diphosphate, CL2-57/Vehicle” value (liver) was 0.87. For the same compound, the “Fructose 6-phosphate, CL2-57/Vehicle” value (liver) was 1.13, the “Glucose 6-phosphate, CL2-57/Vehicle” value (liver) was 0.71 and the “Glucose, CL2-57/Vehicle” value (liver) was 0.96. The “Glycerate, CL2-57/Vehicle” value (liver) was 1.06, the “Lactate, CL2-57/Vehicle” value (liver) was 0.94 and the “Phosphoenolpyruvate (PEP), CL2-57/Vehicle” value (liver) was 0.90. The “Pyruvate, CL2-57/Vehicle” value (liver) was 0.87, the “5-Dodecenoate (12:1n7), CL2-57/Vehicle” value (plasma free fatty acids) was 1.33 and the “10-Undecenoate (11:1n1), CL2-57/Vehicle” value (plasma free fatty acids) was 1.05. For the same compound, the “(2 or 3) -Decenoate (10:1n7 or n8), CL2-57/Vehicle” value (plasma free fatty acids) was 1.16, the “Arachidate (20:0), CL2-57/Vehicle” value (plasma free fatty acids) was 1.09 and the “Butyrate/isobutyrate (4:0), CL2-57/Vehicle” value (plasma free fatty acids) was 1.32. The “Caprate (10:0), CL2-57/Vehicle” value (plasma free fatty acids) was 1.07, the “Caproate (6:0), CL2-57/Vehicle” value (plasma free fatty acids) was 1.12 and the “Caprylate (8:0), CL2-57/Vehicle” value (plasma free fatty acids) was 0.95. For the same compound, the “Cis-4-decenoate (10:1n6), CL2-57/Vehicle” value (plasma free fatty acids) was 1.00, the “Heptanoate (7:0), CL2-57/Vehicle” value (plasma free fatty acids) was 1.12 and the “Laurate (12:0), CL2-57/Vehicle” value (plasma free fatty acids) was 1.20. The “Margarate (17:0), CL2-57/Vehicle” value (plasma free fatty acids) was 1.10, the “Myristate (14:0), CL2-57/Vehicle” value (plasma free fatty acids) was 1.28 and the “Nonadecanoate (19:0), CL2-57/Vehicle” value (plasma free fatty acids) was 1.22. The “Palmitate (16:0), CL2-57/Vehicle” value (plasma free fatty acids) was 1.15, the “Pentadecanoate (15:0), CL2-57/Vehicle” value (plasma free fatty acids) was 1.07 and the “Stearate (18:0), CL2-57/Vehicle” value (plasma free fatty acids) was 1.23*. The “1,5-AG, CL2-57/Vehicle” value (plasma) was 0.85^†, the “2,3-Diphosphoglycerate, CL2-57/Vehicle” value (plasma) was 1.04 and the “3-Phosphoglycerate, CL2-57/Vehicle” value (plasma) was 0.95. For the same compound, the “Glucose, CL2-57/Vehicle” value (plasma) was 1.00, the “Glycerate, CL2-57/Vehicle” value (plasma) was 1.07 and the “Lactate, CL2-57/Vehicle” value (plasma) was 0.88. For the same compound, the “PEP, CL2-57/Vehicle” value (plasma) was 1.16 and the “Pyruvate, CL2-57/Vehicle” value (plasma) was 0.99.

— patent US20240199572A1, “COMPOUNDS, COMPOSITIONS, AND METHODS FOR TREATING TYPE 2 DIABETES AND DEMENTIA” (THE BOARD OF TRUSTEES OF THE UNIVERSITY OF ILLINOIS, priority 2021, published 2024)
